No constants are given. Whether binding was seen depends on the method and setting. For part of these data: In cells and extracts the contact can be indirect. Some binding calls cover weakened binding; strength is not graded here. Sequences can lack the tags named with a protein.

Assay [1] concerns the target T1, VN-tagged Spc72 (S. cerevisiae) (UniProt P39723).
T1 sequence: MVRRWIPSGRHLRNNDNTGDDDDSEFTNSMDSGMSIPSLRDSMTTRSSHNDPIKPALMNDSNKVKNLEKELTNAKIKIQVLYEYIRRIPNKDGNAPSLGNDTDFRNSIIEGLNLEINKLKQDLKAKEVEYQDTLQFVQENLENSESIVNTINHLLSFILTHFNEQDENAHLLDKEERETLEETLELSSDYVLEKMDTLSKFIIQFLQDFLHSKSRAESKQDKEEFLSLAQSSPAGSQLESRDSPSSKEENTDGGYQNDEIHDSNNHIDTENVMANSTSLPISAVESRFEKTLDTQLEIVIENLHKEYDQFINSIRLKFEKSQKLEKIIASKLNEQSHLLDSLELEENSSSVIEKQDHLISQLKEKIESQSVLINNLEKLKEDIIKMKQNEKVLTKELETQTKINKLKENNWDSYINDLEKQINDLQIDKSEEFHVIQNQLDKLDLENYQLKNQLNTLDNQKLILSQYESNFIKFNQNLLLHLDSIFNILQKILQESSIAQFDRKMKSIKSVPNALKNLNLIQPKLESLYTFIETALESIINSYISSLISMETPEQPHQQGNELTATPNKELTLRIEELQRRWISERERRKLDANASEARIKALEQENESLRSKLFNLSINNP
Put plainly: split reporter.

Assay [2] concerns the target T2, Cnm67 (yeast two-hybrid fusion) (S. cerevisiae) (UniProt P53865).
T2 sequence: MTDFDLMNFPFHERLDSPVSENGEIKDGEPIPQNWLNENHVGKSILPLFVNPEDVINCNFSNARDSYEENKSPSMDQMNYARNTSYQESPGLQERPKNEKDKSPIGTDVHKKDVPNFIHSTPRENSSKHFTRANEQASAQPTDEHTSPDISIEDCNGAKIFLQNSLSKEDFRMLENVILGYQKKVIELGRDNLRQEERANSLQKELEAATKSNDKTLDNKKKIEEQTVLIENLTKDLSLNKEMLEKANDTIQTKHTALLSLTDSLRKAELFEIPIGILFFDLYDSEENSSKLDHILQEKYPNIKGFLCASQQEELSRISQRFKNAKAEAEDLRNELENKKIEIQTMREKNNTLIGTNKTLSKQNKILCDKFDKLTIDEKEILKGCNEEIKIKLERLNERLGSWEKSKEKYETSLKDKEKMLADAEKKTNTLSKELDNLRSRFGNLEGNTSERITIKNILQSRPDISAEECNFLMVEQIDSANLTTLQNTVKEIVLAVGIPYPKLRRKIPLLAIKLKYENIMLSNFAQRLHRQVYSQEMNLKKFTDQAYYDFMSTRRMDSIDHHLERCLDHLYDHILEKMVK
As to the kind of experiment: two-hybrid.

The target of assay [3] is T3, Spc72 (yeast two-hybrid fusion) (S. cerevisiae) (UniProt P39723).
T3 sequence: T1 sequence
As to the kind of experiment: two-hybrid.

B1: VC-tagged Atg11 (protein, UniProt Q12527 1-1178)
chain: MADADEYSTAPTQQEITPLQTTATIINAISGECITTNVDFFVSLDKFKQFIARKWKIPPDQLLILLPYGNKLKPSMFKELLINRSFTLNDFYVYDRRLFSLVSKPTPTNLLTSKDSNPMNSPNSNDLTETLEYLIKNSHISQYQGSDTIMIKPMPSPLEDADVDLSRLNYHSVTSLLTTNLGWLSALEIDVHYFKSLIPDIIAHIKRIFDGLTVCSQYLKLYCFDVESLYNSNVQFLNQLVDNGMTSKWEKCFNDTLSKLTALEGDSLQKFINIESLLENEKSVKILNHSINGKLNKIKREIDENASFRDIITVNIDRLRQMFTPNESKFELEDQMAESFEVLVSEMRTRSRNVLDKEEEEFNSQEFLKSMNVMLEKDKKESVKTLFTISQALYSQIGELIDLKKSLQKHAVAILGNIAFTQMEILGIKRLLLNECNKDLELYKKYEVEFAQVEDLPLIYGLYLIEKYRRLSWFQQILSFISNFNQDLELFKQNELRTRNKWVKNFGSIATVFCEDLLSSSDFKRLNEYHSHTSPPNEDEEDENENSIANYRQDLVKVSQAIDNYMTQIKETDVSEPIIDLLSKTLFETKRFHIIYSNFKNNNNNSSNGNSISPEGSIALKSDDVVKGYKTRIKKLESLLHEFQYSDIGHWPQGVLNTHLKPFRGSATSINKKKFLGASVLLEPANISEVNIDSVSQANNHQIQELESNVDDLLHQLQLLKEENNRKSMQISEMGKKISDLEVEKTAYRETLTNLNQELARLTNEEQSHRTEIFTLNASFKKQLNDIISQDNEKIEKLTGDYDDVSKSRERLQMDLDESNKKHEQEVNLLKADIERLGKQIVTSEKSYAETNSSSMEKGEKFETIPLAEDPGRENQISAYTQTLQDRIFDIISTNIFILENIGLLLTFDNNNNIQIRRVKGLKKGTAQSNILDESTQMLDAHDNSLIKSPVFQKLKDEYELIKSVANGSEKDTQQSIFLGNITQLYDNKLYEVAVIRRFKDIETLAKKLTKENKIKRTLLERFQREKVTLRNFQIGDLALFLPTRENVNSVGSMSSSTSSLSSSFSSVDLSTPPPLDAMSIQSSPSVIHSNVINQASISGRDKNKLMRPWAAFTAFEESTRYFLKDEKGLTKGKEWFVGRIVTLEHFVADSPSNNPFRLPKGSVWFQVTAVVVSYQGV
With B1, in assay [1], the binding entry was “binds”.

B2: Atg11 (yeast two-hybrid fusion) (protein, UniProt Q12527 1-1178)
chain: B1 chain
On to B2, for which the binding result in assay [2] is reported as “no binding”; in assay [3], “binds”.
